Results deposited as PubChem BioAssay AID1259254 (NCATS, 2017)

Purpose: 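Finding genes that stop cells copying their DNA twice in one cycle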 (primary screen)
Cells: human HCT116 colorectal cancer cells
Reagents: single siRNA against human genes
Time to read-out: 3 days
Measured: 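Nuclei stained with Hoechst and imaged; cell-cycle phase assigned by DNA content; G2 share scaled per plate, non-targeting siRNA 0%, GMNN siRNA 100%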
Reading the numbers: G2 robust z-score and G2 cells, % of GMNN control: higher = more G2 cells, more excess DNA replication; raw share of cells in G2: higher = larger share of cells with G2 DNA content
Rule for the call: 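An siRNA counts as active if its G2 robust z-score lies at least 5 MADs above the screen median; here such calls match roughly 38% of GMNN control or more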
Here is one part, drawn at random, of about 59,000 reagents. About 1,550 of them (2.6%) were called active. 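G2 share is only a proxy for re-replication; each gene was hit by three separate siRNAs, and active genes were retested.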 The raw values are shown without normalisation. Entries without a mark were called inactive. The numbers tell different reagents against one gene apart. The record does not give: the amount of reagent.

gene symbol | siRNA no. | G2 robust z-score | G2 cells, % of GMNN control | raw share of cells in G2 (%)
KHDC1 (KH domain containing 1) | 1 | -0.743 | -2.26 | 3.51
KHDC1 (KH domain containing 1) | 2 | -0.52 | -0.688 | 4
KHDC1 (KH domain containing 1) | 3 | 0.109 | 3.73 | 3.4
ARHGEF9 (Cdc42 guanine nucleotide exchange factor 9) | 1 | 2.82 | 22.8 | 13.9
ARHGEF9 (Cdc42 guanine nucleotide exchange factor 9) | 2 | 0.664 | 7.64 | 7.29
ARHGEF9 (Cdc42 guanine nucleotide exchange factor 9) | 3 | 0.675 | 7.72 | 6.06
GNA15 (G protein subunit alpha 15) | 1 | 0.744 | 8.2 | 8.22
GNA15 (G protein subunit alpha 15) | 2 | 0.961 | 9.73 | 8.96
GNA15 (G protein subunit alpha 15) | 3 | 0.00716 | 3.02 | 4.73
CPSF6 (cleavage and polyadenylation specific factor 6) | 1 | 2.08 | 17.6 | 13.4
CPSF6 (cleavage and polyadenylation specific factor 6) | 2 | -0.21 | 1.49 | 4.38
CPSF6 (cleavage and polyadenylation specific factor 6) | 3 | -0.376 | 0.324 | 4.26
PAPOLA (poly(A) polymerase alpha) | 1 | -1.26 | -5.93 | 1.92
PAPOLA (poly(A) polymerase alpha) | 2 | 0.993 | 9.95 | 10.4
PAPOLA (poly(A) polymerase alpha) | 3 | -0.0681 | 2.49 | 6.78
IPO5 (importin 5) | 1 | -0.564 | -1 | 4.68
IPO5 (importin 5) | 2 | 0.563 | 6.93 | 8.32
IPO5 (importin 5) | 3 | 0.408 | 5.84 | 6.34
SCN9A (sodium voltage-gated channel alpha subunit 9) | 1 | 3.08 | 24.7 | 14.3
SCN9A (sodium voltage-gated channel alpha subunit 9) | 2 | -0.121 | 2.11 | 5.5
SCN9A (sodium voltage-gated channel alpha subunit 9) | 3 | -0.229 | 1.36 | 4.9
HBP1 (HMG-box transcription factor 1) | 1 | 0.47 | 6.28 | 5.01
HBP1 (HMG-box transcription factor 1) | 2 | 0.139 | 3.95 | 7.69
HBP1 (HMG-box transcription factor 1) | 3 | 1.47 | 13.3 | 7.82
TFIP11 (tuftelin interacting protein 11) | 1 | 0.708 | 7.95 | 6.83
TFIP11 (tuftelin interacting protein 11) | 2 | 1.79 | 15.6 | 13.2
TFIP11 (tuftelin interacting protein 11) | 3 | -0.901 | -3.37 | 2.89
SPA17 (sperm autoantigenic protein 17) | 1 | 2.1 | 17.8 | 9.97
SPA17 (sperm autoantigenic protein 17) | 2 | 1.19 | 11.3 | 9.04
SPA17 (sperm autoantigenic protein 17) | 3 | 0.788 | 8.51 | 6.01
VN2R17P (vomeronasal 2 receptor 17, pseudogene) | 1 | -0.444 | -0.16 | 3.26
VN2R17P (vomeronasal 2 receptor 17, pseudogene) | 2 | -0.691 | -1.9 | 2.48
VN2R17P (vomeronasal 2 receptor 17, pseudogene) | 3 | 1.58 | 14.1 | 6.95
GCOM1 (GCOM1, MYZAP-POLR2M combined locus) | 1 | -0.731 | -2.18 | 3.1
GCOM1 (GCOM1, MYZAP-POLR2M combined locus) | 2 | -1.02 | -4.23 | 1.61
GCOM1 (GCOM1, MYZAP-POLR2M combined locus) | 3 | -0.288 | 0.943 | 3.4
ARSA (arylsulfatase A) | 1 | -0.699 | -1.95 | 3.26
ARSA (arylsulfatase A) | 2 | 3.8 | 29.7 | 15.6
ARSA (arylsulfatase A) | 3 | 1.46 | 13.2 | 9.22
NLGN3 (neuroligin 3) | 1 | -0.829 | -2.86 | 3.19
NLGN3 (neuroligin 3) | 2 | 1.75 | 15.3 | 12.9
NLGN3 (neuroligin 3) | 3 | -0.856 | -3.05 | 2.63
HYAL3 (hyaluronidase 3) | 1 | -1.32 | -6.35 | 2.43
HYAL3 (hyaluronidase 3) | 2 | -0.612 | -1.34 | 4.79
HYAL3 (hyaluronidase 3) | 3 | 0.0197 | 3.11 | 5.95
TAP1 (transporter 1, ATP binding cassette subfamily B member) | 1 | -0.83 | -2.88 | 3.19
TAP1 (transporter 1, ATP binding cassette subfamily B member) | 2 | 3.54 | 27.9 | 14.6
TAP1 (transporter 1, ATP binding cassette subfamily B member) | 3 | -1.24 | -5.76 | 2.48
LDB2 (LIM domain binding 2) | 1 | -0.617 | -1.37 | 3.07
LDB2 (LIM domain binding 2) | 2 | -1.6 | -8.3 | 2.29
LDB2 (LIM domain binding 2) | 3 | -0.341 | 0.569 | 3.58
MEPE (matrix extracellular phosphoglycoprotein) | 1 | 0.604 | 7.22 | 7.19
MEPE (matrix extracellular phosphoglycoprotein) | 2 | 0.742 | 8.19 | 8.37
MEPE (matrix extracellular phosphoglycoprotein) | 3 | -0.318 | 0.732 | 3.26
METTL6 (methyltransferase 6, tRNA N3-cytidine) | 1 | -0.216 | 1.45 | 5.23
METTL6 (methyltransferase 6, tRNA N3-cytidine) | 2 | 4.73 | 36.3 | 23.3
METTL6 (methyltransferase 6, tRNA N3-cytidine) | 3 | -0.226 | 1.38 | 5.28
SLC30A9 | 1 | 5.34 (active) | 40.5 | 22.4
SLC30A9 | 2 | -1.07 | -4.59 | 2.36
SLC30A9 | 3 | -0.67 | -1.74 | 4.94
OR4C16 (olfactory receptor family 4 subfamily C member 16) | 1 | -0.209 | 1.5 | 4.12
OR4C16 (olfactory receptor family 4 subfamily C member 16) | 2 | -0.722 | -2.11 | 2.41
OR4C16 (olfactory receptor family 4 subfamily C member 16) | 3 | 1.25 | 11.8 | 6.96
ADI1 (acireductone dioxygenase 1) | 1 | -0.668 | -1.73 | 3.82
ADI1 (acireductone dioxygenase 1) | 2 | -0.082 | 2.39 | 5.33
ADI1 (acireductone dioxygenase 1) | 3 | 1.84 | 15.9 | 13.4
ADGRF5 (adhesion G protein-coupled receptor F5) | 1 | -0.595 | -1.22 | 5.41
ADGRF5 (adhesion G protein-coupled receptor F5) | 2 | -0.997 | -4.05 | 3.1
ADGRF5 (adhesion G protein-coupled receptor F5) | 3 | 0.626 | 7.37 | 5.53

Records listed so far whose target name begins with P or p:
gene symbol | siRNA no. | G2 robust z-score | G2 cells, % of GMNN control | raw share of cells in G2 (%)
PAPOLA (poly(A) polymerase alpha) | 1 | -1.26 | -5.93 | 1.92
PAPOLA (poly(A) polymerase alpha) | 2 | 0.993 | 9.95 | 10.4
PAPOLA (poly(A) polymerase alpha) | 3 | -0.0681 | 2.49 | 6.78
